Laboratory results reported in CN112679607A.
No constants are given. Whether binding was seen depends on the method and setting. Some results given as binding are weak or reduced against the parent protein; the word gives no strength.

Substrate: 肌钙蛋白I (cTnI) 抗原 (UniProt P19429)
Test: sandwich ELISA on pooled cTnI clinical sample (22.7 ng/ml, two-fold dilutions), HRP-F12 detection

binding: binds
B1: cTnI E13全长单抗 (E13 full-length monoclonal antibody) (antibody, V domains shown)
VH: EVQLQQSGPELVKPGASVKISCKASGYTFTDYNMHWLKQSHGKSLEWIGYIYPYSGGTAYNQKFKNKATLTADTSSSTAHMELRSLTSEDSSFYYCARHHDYDGGTFAYWGQGTLVTVSA
VL: DIQMTQTTSSLSASLGDRVTISCRASQDITNYLNWYQQKPDGTVKLLIYYTSRLHSGVPSRFSGSGSGPDYSLTISHLEHEDIATYFCQQGHTLPLTFGDGTTLEL
